Patent US12291607B2, “Polymer material and method for producing same” (Osaka University, priority 2019, dated 2025)
Some entries share one result that the patent states for a list of compounds.

Assay: Solubility of third polymerizable monomers in water
Conditions: for 100 g of water (20° C.)

C=CC(=O)OCCCCCCCC [OctA, octyl acrylate]
solubility in water: less than 0.1 g
